In article PMC5709735, “Real‐time detection of condensin‐driven DNA compaction reveals a multistep binding mechanism” (The EMBO Journal, 2017):
No constants are given. Whether binding was seen depends on the method and setting. Some binding calls cover weakened binding; strength is not graded here.

Experiments:
Assay in all cases: tandem affinity chromatography + SEC; subunits co-overexpressed in budding yeast; complexes purified from interphase cell extracts by the His12 tag on Brn1 and the triple StrepII tag on Smc4, followed by a gel filtration step
Brn1 (S. cerevisiae) = biological target: T1, Brn1 (S. cerevisiae) (UniProt P38170)
T1 sequence: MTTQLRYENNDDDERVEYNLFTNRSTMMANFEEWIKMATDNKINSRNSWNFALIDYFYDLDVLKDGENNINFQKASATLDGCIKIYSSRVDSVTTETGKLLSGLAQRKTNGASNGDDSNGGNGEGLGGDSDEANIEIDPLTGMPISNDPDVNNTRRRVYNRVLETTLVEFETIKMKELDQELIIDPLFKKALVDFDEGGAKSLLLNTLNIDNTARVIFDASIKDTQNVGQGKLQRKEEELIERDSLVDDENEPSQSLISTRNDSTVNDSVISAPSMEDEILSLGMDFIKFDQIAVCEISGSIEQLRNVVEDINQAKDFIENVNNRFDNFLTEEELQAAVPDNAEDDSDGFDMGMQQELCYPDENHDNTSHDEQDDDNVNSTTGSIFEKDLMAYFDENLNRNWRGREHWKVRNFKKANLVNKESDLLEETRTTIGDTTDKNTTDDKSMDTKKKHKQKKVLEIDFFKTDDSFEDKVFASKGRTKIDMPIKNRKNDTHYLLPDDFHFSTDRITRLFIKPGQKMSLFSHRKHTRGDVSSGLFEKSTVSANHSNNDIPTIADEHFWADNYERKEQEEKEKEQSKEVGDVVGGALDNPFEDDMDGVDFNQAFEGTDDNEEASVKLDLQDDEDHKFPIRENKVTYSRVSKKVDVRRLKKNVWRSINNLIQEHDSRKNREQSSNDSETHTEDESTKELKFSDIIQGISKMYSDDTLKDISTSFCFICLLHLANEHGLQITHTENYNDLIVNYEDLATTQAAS

[1] = biological target: T2, Brn1 K409D, R411D, K414D, K451D, K452D, K456D, K457D (S. cerevisiae) (UniProt P38170)
T2 sequence: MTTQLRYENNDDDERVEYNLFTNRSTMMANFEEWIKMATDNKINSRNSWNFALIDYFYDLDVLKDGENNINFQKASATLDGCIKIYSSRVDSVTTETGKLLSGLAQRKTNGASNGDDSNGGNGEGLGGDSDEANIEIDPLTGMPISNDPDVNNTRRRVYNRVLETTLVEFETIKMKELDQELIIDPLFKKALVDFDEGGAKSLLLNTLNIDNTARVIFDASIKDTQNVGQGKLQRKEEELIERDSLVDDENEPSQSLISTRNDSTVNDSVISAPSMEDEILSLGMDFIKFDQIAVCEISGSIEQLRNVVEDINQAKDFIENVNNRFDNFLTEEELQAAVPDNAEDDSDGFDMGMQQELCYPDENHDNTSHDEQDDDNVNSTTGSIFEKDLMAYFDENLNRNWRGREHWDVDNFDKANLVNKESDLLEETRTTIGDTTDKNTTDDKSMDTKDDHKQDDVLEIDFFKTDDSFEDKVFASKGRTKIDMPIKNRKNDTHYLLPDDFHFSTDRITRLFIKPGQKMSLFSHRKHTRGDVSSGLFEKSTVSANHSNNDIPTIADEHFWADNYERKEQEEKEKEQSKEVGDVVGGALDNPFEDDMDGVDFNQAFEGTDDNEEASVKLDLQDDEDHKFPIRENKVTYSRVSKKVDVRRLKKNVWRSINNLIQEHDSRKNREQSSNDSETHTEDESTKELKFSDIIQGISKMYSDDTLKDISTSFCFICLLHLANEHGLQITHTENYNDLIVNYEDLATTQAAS

[2] = biological target: T3, Smc4 Q302L (S. cerevisiae) (UniProt Q12267)
T3 sequence: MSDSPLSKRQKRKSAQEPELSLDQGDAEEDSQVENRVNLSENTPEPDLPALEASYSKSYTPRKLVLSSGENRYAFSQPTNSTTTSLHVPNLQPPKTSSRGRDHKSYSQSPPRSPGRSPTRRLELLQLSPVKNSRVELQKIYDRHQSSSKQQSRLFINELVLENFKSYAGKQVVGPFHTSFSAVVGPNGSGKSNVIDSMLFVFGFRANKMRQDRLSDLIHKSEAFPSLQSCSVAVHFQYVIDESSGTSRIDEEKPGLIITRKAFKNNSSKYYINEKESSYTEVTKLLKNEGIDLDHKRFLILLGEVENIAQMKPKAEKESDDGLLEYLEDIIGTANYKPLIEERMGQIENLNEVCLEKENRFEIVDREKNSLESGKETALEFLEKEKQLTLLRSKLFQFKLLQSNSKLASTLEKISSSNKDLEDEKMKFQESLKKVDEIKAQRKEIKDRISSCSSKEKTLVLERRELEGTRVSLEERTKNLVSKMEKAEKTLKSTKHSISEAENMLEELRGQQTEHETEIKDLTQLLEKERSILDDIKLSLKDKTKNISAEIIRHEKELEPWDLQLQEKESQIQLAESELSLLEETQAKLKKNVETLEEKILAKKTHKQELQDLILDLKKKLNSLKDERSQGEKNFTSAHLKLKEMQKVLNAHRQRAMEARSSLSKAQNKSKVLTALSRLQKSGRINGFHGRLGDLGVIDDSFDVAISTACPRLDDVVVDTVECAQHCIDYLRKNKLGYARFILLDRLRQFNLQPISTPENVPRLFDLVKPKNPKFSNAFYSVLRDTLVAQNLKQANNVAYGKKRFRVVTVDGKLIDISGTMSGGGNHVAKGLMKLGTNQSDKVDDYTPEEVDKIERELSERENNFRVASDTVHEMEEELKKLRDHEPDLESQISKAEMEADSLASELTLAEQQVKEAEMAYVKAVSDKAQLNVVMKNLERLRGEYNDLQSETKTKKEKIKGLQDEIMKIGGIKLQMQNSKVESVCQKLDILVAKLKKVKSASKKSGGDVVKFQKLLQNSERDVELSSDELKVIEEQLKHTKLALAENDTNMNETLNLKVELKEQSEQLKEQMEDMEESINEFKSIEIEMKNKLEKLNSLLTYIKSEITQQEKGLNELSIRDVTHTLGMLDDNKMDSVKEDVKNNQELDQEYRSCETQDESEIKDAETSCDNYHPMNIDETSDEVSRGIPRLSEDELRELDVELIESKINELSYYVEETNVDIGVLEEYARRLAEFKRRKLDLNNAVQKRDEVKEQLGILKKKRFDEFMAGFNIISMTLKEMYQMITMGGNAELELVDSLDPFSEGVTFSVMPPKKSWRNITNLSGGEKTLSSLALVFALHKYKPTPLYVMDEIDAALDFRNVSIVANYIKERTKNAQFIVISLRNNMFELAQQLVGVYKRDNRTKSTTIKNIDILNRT

- binding (Brn1 (S. cerevisiae)): binds
- binding [1]: binds
- binding [2]: binds
B1: Ycg1 (protein, UniProt Q06680 1-1035)
chain: MQDPDGIDINTKIFNSVAEVFQKAQGSYAGHRKHIAVLKKIQSKAVEQGYEDAFNFWFDKLVTKILPLKKNEIIGDRIVKLVAAFIASLERELILAKKQNYKLTNDEEGIFSRFVDQFIRHVLRGVESPDKNVRFRVLQLLAVIMDNIGEIDESLFNLLILSLNKRIYDREPTVRIQAVFCLTKFQDEEQTEHLTELSDNEENFEATRTLVASIQNDPSAEVRRAAMLNLINDNNTRPYILERARDVNIVNRRLVYSRILKSMGRKCFDDIEPHIFDQLIEWGLEDRELSVRNACKRLIAHDWLNALDGDLIELLEKLDVSRSSVCVKAIEALFQSRPDILSKIKFPESIWKDFTVEIAFLFRAIYLYCLDNNITEMLEENFPEASKLSEHLNHYILLRYHHNDISNDSQSHFDYNTLEFIIEQLSIAAERYDYSDEVGRRSMLTVVRNMLALTTLSEPLIKIGIRVMKSLSINEKDFVTMAIEIINDIRDDDIEKQEQEEKIKSKKINRRNETSVDEEDENGTHNDEVNEDEEDDNISSFHSAVENLVQGNGNVSESDIINNLPPEKEASSATIVLCLTRSSYMLELVNTPLTENILIASLMDTLITPAVRNTAPNIRELGVKNLGLCCLLDVKLAIDNMYILGMCVSKGNASLKYIALQVIVDIFSVHGNTVVDGEGKVDSISLHKIFYKVLKNNGLPECQVIAAEGLCKLFLADVFTDDDLFETLVLSYFSPINSSNEALVQAFAFCIPVYCFSHPAHQQRMSRTAADILLRLCVLWDDLQSSVIPEVDREAMLKPNIIFQQLLFWTDPRNLVNQTGSTKKDTVQLTFLIDVLKIYAQIEKKEIKKMIITNINAIFLSSEQDYSTLKELLEYSDDIAENDNLDNVSKNALDKLRNNLNSLIEEINERSETQTKDENNTANDQYSSILGNSFNKSSNDTIEHAADITDGNNTELTKTTVNISAVDNTTEQSNSRKRTRSEAEQIDTSKNLENMSIQDTSTVAKNVSFVLPDEKSDAMSIDEEDKDSESFSEVC
